Laboratory results published in the supplement of paper PMC3334620.
Over roughly 33,000 sequences, “E-score (-0.5 to 0.5)” has its median near -0.0034; the highest 2% begin near 0.25. Some of the results follow.

target: T1, Yap3 (UniProt P38749); test: PBM E-score (8-mer binding enrichment) (E-score (-0.5 to 0.5)); higher = stronger / more preferred TF binding; settings: protein concentration: 100 nM; construct: GST-full length
T1 sequence: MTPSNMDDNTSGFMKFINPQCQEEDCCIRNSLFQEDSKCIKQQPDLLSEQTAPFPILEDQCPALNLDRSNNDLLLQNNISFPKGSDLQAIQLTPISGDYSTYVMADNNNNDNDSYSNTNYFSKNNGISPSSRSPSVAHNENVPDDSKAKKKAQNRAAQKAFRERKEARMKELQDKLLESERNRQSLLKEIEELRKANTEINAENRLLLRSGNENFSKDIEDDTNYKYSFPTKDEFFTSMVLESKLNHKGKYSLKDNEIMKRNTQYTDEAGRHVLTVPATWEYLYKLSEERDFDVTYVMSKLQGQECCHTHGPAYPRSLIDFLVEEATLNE
Method in brief: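 Detection of bound protein used fluorescent anti-GST, with scans normalised by masliner. The proteins were GST-tagged yeast transcription factors applied at about 100-200 nM to universal all-10-mer Agilent arrays made double-stranded by primer extension. Each ungapped eight-base word, pooled with its reverse complement, was scored with an E-score from the Universal PBM Analysis Suite.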

Row | Sequence | PBM E-score
1 | ACAGCCGG | -0.0252
2 | ACCAAGCA | 0.093
3 | GGTTTGGA | 0.0533
4 | CTAATTCA | 0.112
5 | CGTACAAG | -0.0723
6 | CGCATGTA | 0.0255
7 | ATGTCGTG | -0.0787
8 | AGTTATAA | 0.153
9 | CAGTGAAA | -0.0336
10 | ATGTCTGA | 0.137
11 | AAGCTCGA | 0.103
12 | ACTGTTAC | 0.171
13 | CCGCATAC | 0.052
14 | GGTCAGCA | -0.0315
15 | GCGTATAC | -0.0519
16 | ATCCAGCA | 0.051
17 | ATGGAGTA | 0.116
18 | AGGAGAAC | -0.105
19 | CGTTGTAC | 0.0708
20 | AATTCTGA | 0.117
21 | GTCCTCAA | 0.0939
22 | CGGGTCCC | -0.454
23 | GTGAGGGA | -0.0903
24 | TAAGCACA | 0.179
25 | ATACACTC | 0.0757

Row | Sequence | PBM E-score
26 | CTCAAGGC | -0.0478
27 | ATGTGCTC | 0.0695
28 | ATCCCATG | -0.00536
29 | CAACGTCG | -0.0111
30 | GACGCGGA | -0.188
31 | ACTTTACC | 0.149
32 | TGGGATAA | 0.0237
33 | TCCTAGGA | -0.119
34 | CCCCCCTA | -0.247
35 | CGCATATA | 0.00761
36 | GGCGCGTA | -0.139
37 | GATATTCC | 0.12
38 | TATGCACA | 0.031
39 | GAGTCGAA | 0.0765
40 | ATGATTCC | 0.149
41 | CCAGCATA | 0.034
42 | ACACTTCA | 0.0742
43 | CTTCAGGA | -0.0162
44 | AGTCAAAA | 0.0355
45 | GTCTCGGA | 0.00612
46 | AGGCTTGC | -0.152
47 | AGAGCTCG | -0.0652
48 | CCTGATAG | -0.142
49 | ATCGGTCC | -0.0985
50 | CCCATAGA | -0.0716

Row | Sequence | PBM E-score
51 | GTGCGCAC | 0.159
52 | CGCTAAAA | 0.0721
53 | ACATCGGT | -0.192
54 | AAGAGCAA | -0.0696
55 | AAGTGACG | 0.0449
56 | GAAAGTAA | 0.0872
57 | ACCGCCAG | -0.0424
58 | CTTCATGC | -0.0893
59 | AGCGTCAC | -0.111
60 | CTTGACCC | -0.207
61 | AGATCAGG | -0.117
62 | GTTCTATA | 0.0395
63 | TAAAGTAA | 0.136
64 | ACCTCAAG | -0.104
65 | CATTGAAC | 0.07
66 | AATGACAT | 0.162
67 | CATACCTA | -0.0983
68 | CAATAGAG | -0.0767
69 | ACGTGCCG | -0.0947
70 | AGCACGGG | -0.128
71 | GCCGAGGA | 0.051
72 | GAGGTGGA | -0.243
73 | ACCGAAGG | -0.183
74 | AGAAGTAT | 0.21
75 | CGCGTAGA | 0.0492

Row | Sequence | PBM E-score
76 | GGAGCAGA | -0.0901
77 | AGAAGGTC | 0.0815
78 | CCCCCGGG | -0.383
79 | TCGTGACA | -0.046
80 | ACCACAGC | -0.0654
81 | CTAGTTAA | 0.26
82 | CTGCGGAC | -0.205
83 | ACTGCAGA | -0.0419
84 | AACTCGGC | 0.165
85 | GGGTCCAC | -0.369
86 | CTGGAAAA | 0.0934
87 | AAGACTGG | -0.0292
88 | CGACAGAG | -0.0711
89 | CGAGTCCG | -0.122
90 | TACTAAGA | 0.242
91 | AGATAGGC | -0.0411
92 | CAGGGGTC | -0.22
93 | CCTCGTCG | -0.0231
94 | TGGAGCCA | -0.194
95 | AGAAATTA | 0.202
96 | CAACGAAC | 0.227
97 | AGAGGAGA | -0.173
98 | GGGGTCAC | -0.296
99 | AACTACTT | 0.092
100 | CAAGCGGG | -0.252

Copied from the list.
In PBM E-score, CGTACAAG has -0.0723
In PBM E-score, CCTGATAG has -0.142
In PBM E-score, CTTCAGGA has -0.0162
In PBM E-score, CGACAGAG has -0.0711
In PBM E-score, ACACTTCA has 0.0742

Following part

Row | Sequence | PBM E-score
101 | GTGGAACA | -0.0444
102 | CTGCCGGC | -0.146
103 | CTACCTAC | 0.0255
104 | CACAGGTA | -0.0333
105 | CCTTATAG | 0.00973
106 | ACCCTTCA | -0.0699
107 | TAGATTGA | -0.0683
108 | ACTAAGCC | 0.042
109 | CCATATCG | 0.0308
110 | TACCCACA | -0.0045
111 | GAAACAGA | 0.2
112 | GGCCGGTA | -0.0931
113 | TAAGGGTA | -0.0459
114 | ATGCCGGA | -0.1
115 | CAATAACC | 0.211
116 | TCTCCCCA | -0.23
117 | CCGGCTCA | 0.00949
118 | ATGCCGAG | 0.0429
119 | CGTATGAA | 0.239
120 | ATGGACTA | 0.0451
121 | AAACCCGC | 0.126
122 | CTTCTTTA | 0.148
123 | CACACGAA | 0.114
124 | AAGGCGCG | -0.0685
125 | ATTCCAAT | 0.0727

Row | Sequence | PBM E-score
126 | ATGCAATC | 0.0908
127 | ACCTTCAG | -0.0617
128 | GTAAATTA | 0.223
129 | CAGGCCGC | -0.168
130 | ATACCTTC | -0.0193
131 | TGGTTACA | 0.0144
132 | ACCAGAAG | -0.0369
133 | ACAGACTA | -0.119
134 | AAATTGGT | 0.244
135 | ATTTCCGG | 0.205
136 | GTGTGGCA | -0.0694
137 | ATCTTCAG | 0.0835
138 | CACCTTGG | -0.0567
139 | GCAGGCTA | -0.231
140 | ACGTGGGC | -0.154
141 | CTGCCGGA | 0.0282
142 | CTGCGAGC | 0.00087
143 | AAATATCC | 0.219
144 | ACGCCGAC | 0.0402
145 | TCGGTTAA | 0.168
146 | CGGGTGGA | -0.0997
147 | ATTACGCC | 0.0197
148 | ACTGAGAC | -0.0711
149 | ATGGCTTC | -0.0247
150 | GCAAGTAA | 0.188

Looked up one by one from the entries so far:
Row | Sequence | PBM E-score
55 | AAGTGACG | 0.0449
130 | ATACCTTC | -0.0193

Remaining list, next part

Row | Sequence | PBM E-score
151 | CTCGATTC | 0.111
152 | AACCGAAT | 0.0854
153 | ATCTGTCA | 0.206
154 | TCTGAACA | 0.0958
155 | GAAACGTC | -0.0528
156 | ATGGTCTA | -0.0886
157 | CCAATAGG | -0.00099
158 | CTATTAGA | -0.0988
159 | AAGGGTTG | 0.0891
160 | ACTAGTCA | -0.088
161 | CTCGCATA | -0.0164
162 | ATACAGAT | 0.11
163 | AAATATCA | 0.187
164 | CCCGATAC | -0.0724
165 | GTGCCAAA | -0.144
166 | AAGTTACC | 0.141
167 | CTACGAAC | 0.138
168 | CCGGCCCA | -0.252
169 | GTTGAGGA | -0.113
170 | GTGTGCGA | -0.0583
171 | CGGTCGAC | -0.0836
172 | AAAATAAA | 0.204
